Results published in patent US7449567B2, “Isolation and identification of mouse and human transcription control elements associated with cytochrome expression” (Xenogen Corporation, priority 2001, dated 2008).

Tests used:
[1] = tested on: CYP3A4-luc transgene (13 kb human CYP3A4 promoter); details: FVB (CYP3A4-luc transgenic, line #82), mouse, in vivo
Protocol: General methods for evaluating the animal lines were as follows. Tg founders were bred to wild-type FvB mice to generate F1 mice. A female transgenic founder was bred to a wild-type FvB male and a male transgenic founder was bred to a few wild-type FvB females.
A Luciferin stock solution of 30 mg/ml was prepared in sterile PBS.
The route of administration for the drugs and for luciferin was IP. The dose of reagent administration of luciferin substrate and drugs was as follows. Dose of luciferin: 150 mg/kg of a 30 mg/ml luciferin stock was injected IP five minutes before imaging in the IVIS™ (Xenogen Corporation, Alameda, Calif.) system. […] DMSO was administrated as a vehicle control.
Following luciferin administration the animals were anesthetized using gas anesthesia (Isoflurane) and placed in an IVIS™ box (Xenogen Corporation, Alameda, Calif.) for imaging. All animals were imaged before and after chemical administration, and imaged at high resolution (binning 2) for 10 seconds or 1 minute, for males and females, respectively.
NT is the non-treated control. Before each imaging session, mice were injected i.p. with 150 mg/kg luciferin. […] Measurements on each mouse were performed as described above. […] Measurements on each mouse were performed as described above.

hPXR = molecular target: T1, hPXR (Homo sapiens, UniProt O75469); details: cited from earlier work
T1 sequence (O75469 1-434): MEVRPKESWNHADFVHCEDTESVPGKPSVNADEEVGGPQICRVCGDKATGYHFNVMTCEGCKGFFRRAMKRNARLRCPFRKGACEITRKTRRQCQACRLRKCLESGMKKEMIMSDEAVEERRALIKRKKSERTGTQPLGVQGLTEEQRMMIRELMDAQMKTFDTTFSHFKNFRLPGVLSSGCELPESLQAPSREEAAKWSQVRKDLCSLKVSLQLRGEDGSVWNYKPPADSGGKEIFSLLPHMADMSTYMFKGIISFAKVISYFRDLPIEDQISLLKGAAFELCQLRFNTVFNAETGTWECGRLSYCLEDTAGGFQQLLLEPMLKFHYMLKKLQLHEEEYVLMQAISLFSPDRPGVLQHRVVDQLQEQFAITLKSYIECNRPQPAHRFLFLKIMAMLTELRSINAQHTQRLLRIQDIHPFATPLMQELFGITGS

COC(=O)C1=C(C)NC(C)=C(C(=O)OC)C1c1ccccc1[N+](=O)[O-] [Nif, nifedipine]
induction of the transgene CYP3A4-luc [1]: induced the transgene CYP3A4-luc better than other three compounds
induction of CYP3A4 expression via hPXR (hPXR): relatively better inducers of CYP3A4 expression
